The structures appear in SMILES notation. The list shows a part of the results. Single values are uncertain, as repeats are few or missing.

In the test the test system is Neuro-2a. Kind of test: neurite formation score, plate-normalized to DMSO control mean 5.04 (score (0-8 scale)); higher = more or longer neurites. The conditions noted are these: 10 µM.
For the compound `Cc1c[nH]c(/C=C2\C(=O)Nc3ccccc32)c1CCC(=O)O`, the neurite formation score is 4.41.
As for `COc1ccc(-c2cc3c(C)nc(N)nc3n([C@H]3CC[C@H](OCCO)CC3)c2=O)cn1`, the neurite formation score came to 2.43.
With `Cc1nc(NC(=O)N2CCC[C@H]2C(N)=O)sc1-c1csc(C(C)(C)C)n1` the figure was 4.19; with `CN(C)C/C=C/C(=O)Nc1cc2c(Nc3ccc(F)c(Cl)c3)ncnc2cc1O[C@H]1CCOC1` [Afatinib dimaleate], 2.54; with `C=CC(=O)Nc1ccc2ncnc(Nc3cccc(Br)c3)c2c1`, 5.88.
With `COc1cc2nccc(Oc3ccc(NC(=O)NC4CC4)c(Cl)c3)c2cc1C(N)=O` [Lenvatinib (E7080)] the figure was 3.21; with `C[C@H](Nc1ncnc2nc[nH]c12)c1cc2cccc(Cl)c2c(=O)n1-c1ccccc1`, 3.54.
With `CN1CCN(c2ccc(OC(F)(F)F)c(Nc3ncc4c(n3)-c3c(c(C(N)=O)nn3CCO)CC4)c2)CC1` the figure was 4.86; with `CCc1cnn2c(NCc3ccc[n+]([O-])c3)cc(N3CCCC[C@H]3CCO)nc12`, 2.09; with `Cc1cc(Nc2nc(N[C@@H](C)c3ncc(F)cn3)ncc2Cl)[nH]n1`, 0.0903.
In turn, `Clc1ccc(Nc2nnc(Cc3ccncc3)c3ccccc23)cc1` [Vatalanib] came in with a neurite formation score of 3.74.
In turn, `Cc1c(CN2CCN(C(=O)[C@H](C)O)CC2)sc2c(N3CCOCC3)nc(-c3cnc(N)nc3)nc12` had a neurite formation score of 2.86.
With `NC1(C(=O)N[C@@H](CCO)c2ccc(Cl)cc2)CCN(c2ncnc3[nH]ccc23)CC1` the figure was 5.54; with `COc1ccc2c(c1)c(C1=C(c3c[nH]c4ccccc34)C(=O)NC1=O)cn2CCCN(C)C`, 5.52; with `CN(C)CCCn1cc(C2=C(c3c[nH]c4ccccc34)C(=O)NC2=O)c2ccccc21`, 4.52.
For the compound `Cc1ccccc1CN1C2=NCCN2C(=O)C2=C1CCN(Cc1ccccc1)C2`, the neurite formation score amounted to 4.09.
Turning to `COc1cc2ncnc(Nc3cccc(Br)c3)c2cc1OC`, the neurite formation score is 4.42.
The value for `Cc1ccc(C(=O)Nc2cccc(C(F)(F)F)c2)cc1Nc1nc(-c2cccnc2)nc2c1cnn2C` was 1.43; that for `O=C(c1ccc(F)c(F)c1Nc1ccc(I)cc1F)N1CC(O)([C@@H]2CCCCN2)C1` [Cobimetinib] was 0.209; that for `Cc1cc(Nc2cc(N3CCN(C)CC3)nc(Sc3ccc(NC(=O)C4CC4)cc3)n2)n[nH]1` [VX-680 (MK-0457,Tozasertib)] was 2.41.
Consider `FC(F)(F)c1ccc(CNc2ccc(Cc3c[nH]c4ncc(Cl)cc34)cn2)cn1` [Pexidartinib (PLX3397)], for which the neurite formation score was determined as 3.86.
`C[C@@H]1COCCN1c1cc(C2(S(C)(=O)=O)CC2)nc(-c2cccc3[nH]ccc23)n1` had a neurite formation score of 4.21.
`CN1CCN(c2nc(C3=C(c4c[nH]c5ccccc45)C(=O)NC3=O)c3ccccc3n2)CC1` [Sotrastaurin (AEB071)] yielded a neurite formation score of 5.43.
With `C=CC(=O)Nc1cccc(Sc2nc(Nc3ccc(N4CCN(C)CC4)cc3)ncc2Cl)c1` the figure was 4.54; with `Cc1ccc(NC(=O)c2cccc(N(C)C)c2)cc1NC(=O)c1ccc(O)cc1`, 4.09; with `CO[C@H]1C[C@@H]2CC[C@@H](C)[C@@](O)(O2)C(=O)C(=O)N2CCCC[C@H]2C(=O)O[C@H]([C@H](C)C[C@@H]2CC[C@@H](OC(=O)C(C)(CO)CO)[C@H](OC)C2)CC(=O)[C@H](C)/C=C(\C)[C@@H](O)[C@@H](OC)C(=O)[C@H](C)C[C@H](C)/C=C/C=C/C=C/1C` [Temsirolimus], 3.85.
With `COc1ccc(-c2ccc3c(N4CCOC[C@@H]4C)nc(N4CCOC[C@@H]4C)nc3n2)cc1CO` the figure was 4.19; with `N#C/C(=C\c1ccc(O)c(O)c1)C(=O)NCc1ccccc1`, 2.74.
With `CNC(=O)c1nn(C)c2c1C(C)(C)Cc1cnc(Nc3ccc(N4CCN(C)CC4)cc3)nc1-2` the figure was 1.43.
For the compound `CCN1CCN(Cc2ccc(-c3cc4c(N[C@H](C)c5ccccc5)ncnc4[nH]3)cc2)CC1`, the neurite formation score was 1.52.
For the compound `Cc1c(NC(=O)OC[C@@H]2COCCN2)cn2ncnc(Nc3ccc4c(cnn4Cc4cccc(F)c4)c3)c12`, the neurite formation score stood at 4.54.
`O=C(CCCCCCC(=O)Nc1ccc(I)cc1)NO` [4-iodo-SAHA]: the neurite formation score was 5.19.
With `Cc1cnc(Nc2ccc(N3CCN(C)CC3)cc2)nc1Nc1cccc(S(=O)(=O)NC(C)(C)C)c1` the figure was 1.41; with `CN1CCN(CCOc2cc(OC3CCOCC3)c3c(Nc4c(Cl)ccc5c4OCO5)ncnc3c2)CC1` [Saracatinib (AZD0530)], 2.21; with `CC(C)[C@H](CO)Nc1nc(Nc2cccc(Cl)c2)c2ncn(C(C)C)c2n1` [Purvalanol A], 0.855.

The values above are taken from the supplement of paper PMC8047044.
